Laboratory results taken from patent US20170283478 (published 2017).

Key:
[1] = general procedure: Fmoc solid-phase peptide synthesis; Wang resin; MSNT / 1-methyl imidazole (loading of first Fmoc-Gly); conditions: whole synthesis, scale of the general procedure 50 gm Wang resin, 30 gm Tentagel SPHB resin, trifluoro acetate salt, run 1
[2] = general procedure: Fmoc solid-phase peptide synthesis; Tentagel SPHB resin; MSNT / 1-methyl imidazole (loading of first Fmoc-Gly); conditions: whole synthesis, scale of the general procedure 50 gm Wang resin, 30 gm Tentagel SPHB resin, trifluoro acetate salt, run 2
[3] = general procedure: Fmoc solid-phase peptide synthesis; Wang resin (Example 1); Tentagel SPHB resin (Example 2); MSNT / 1-methyl imidazole (loading of first Fmoc-Gly); conditions: whole synthesis, scale of the general procedure 50 gm Wang resin, 30 gm Tentagel SPHB resin, trifluoro acetate salt

Liraglutide
crude HPLC purity [1]: 27.5%
crude HPLC purity [2]: 36.89%
final HPLC purity ([3]; run 1): average 97%
final HPLC purity ([3]; run 2): average 97%
final HPLC purity ([3]; run 3): >96%
final HPLC purity ([3]; run 4): >96%
